From publication PMC12802285, “PPE64 is a mycomembrane channel protein that functions in heme iron uptake and moonlights in biofilm formation in Mycobacterium tuberculosis” (mBio, 2025)
These are yes or no findings as the source states them, for the method shown. Some entries that bind do so weakly or less than the wild type. Where a sequence is shown, tags or fusion partners need not be part of it.

Experiments:
[1] = molecular target: PPE64 mycomembrane channel protein (recombinant, detergent-refolded) (Mycobacterium tuberculosis) (UniProt Q6MWW0); assay: SEC; both purified
[2] = molecular target: PPE64 mycomembrane channel protein (recombinant, detergent-refolded) (Mycobacterium tuberculosis) (UniProt Q6MWW0); assay: native gel or EMSA; both purified

B1: PPE64 mycomembrane channel protein (recombinant, detergent-refolded) (natural protein)
chain: MAHFSVLPPEINSLRMYLGAGSAPMLQAAAAWDGLAAELGTAASSFSSVTTGLTGQAWQGPASAAMAAAAAPYAGFLTTASAQAQLAAGQAKAVASVFEAAKAAIVPPAAVAANREAFLALIRSNWLGLNAPWIAAVESLYEEYWAADVAAMTGYHAGASQAAAQLPLPAGLQQFLNTLPNLGIGNQGNANLGGGNTGSGNIGNGNKGSSNLGGGNIGNNNIGSGNRGSDNFGAGNVGTGNIGFGNQGPIDVNLLATPGQNNVGLGNIGNNNMGFGNTGDANTGGGNTGNGNIGGGNTGNNNFGFGNTGNNNIGIGLTGNNQMGINLAGLLNSGSGNIGIGNSGTNNIGLFNSGSGNIGVFNTGANTLVPGDLNNLGVGNSGNANIGFGNAGVLNTGFGNASILNTGLGNAGELNTGFGNAGFVNTGFDNSGNVNTGNGNSGNINTGSWNAGNVNTGFGIITDSGLTNSGFGNTGTDVSGFFNTPTGPLAVDVSGFFNTASGGTVINGQTSGIGNIGVPGTLFGSVRSGLNTGLFNMGTAISGLFNLRQLLG
notes: also called PPE64_(OPOE); PPE64DDM
With B1 the binding [1] was “binds” and the binding [2] was “binds”.
